# Measurements taken from US11051513B2, “Pyridone compounds and agricultural and horticultural fungicides containing the same as active ingredients” (MITSUI CHEMICALS AGRO, INC., priority 2017, dated 2021).
# Some of these results come from one statement about several compounds together.
# Tests used:
# [1] = test system: Colletotrichum orbiculare; test: Test Example H: Anthracnose on cucumber; conditions: 250 ppm sprayed (2.5 ml/pot) on cucumber (Sagami Hanjiro); disease development 6 to 10 days after inoculation
# Botrytis cinerea = test: Test Example B: Gray mold on tomato; conditions: 250 ppm sprayed (2.5 ml/pot) on tomato (Oogata Fukuju); disease development 2 to 3 days after inoculation
# Puccinia recondita = test: Test Example E: Brown rust on wheat; format: in vivo; conditions: 250 ppm sprayed (2.5 ml/pot) on wheat (Norin 61); disease development 7 to 10 days after inoculation
# Alternaia brassicicola = test: Test Example C: Alternaria sooty spot on cabbage; conditions: 250 ppm sprayed (2.5 ml/pot) on cabbage (Shikidori); disease development 2 to 3 days after inoculation
Compound,control value [1] [%],control value (Botrytis cinerea) [%],control value (Puccinia recondita) [%],control value (Alternaia brassicicola) [%]
COc1cccc(-c2cc(Br)c(=O)n(C)c2-c2ccccc2)c1Cl [compound 106],> 50,> 50,,
CCn1c(-c2ccc(Cl)cc2)c(-c2ccccc2Cl)cc(Cl)c1=O [compound 135],,,> 50,
Cn1c(-c2ccc(F)cc2)c(-c2ccccc2Cl)cc(Br)c1=O [compound 150],,> 50,> 50,
Cc1ccc(-c2c(-c3ccccc3Cl)cc(Cl)c(=O)n2C)cc1 [compound 158],,> 50,,
Cn1c(-c2cc(F)c(F)c(F)c2)c(-c2cc(F)ccc2Cl)ccc1=O [compound 160],> 50,> 50,> 50,
COc1c(F)cc(-c2c(-c3cc(F)ccc3Cl)cc(Cl)c(=O)n2C)cc1F [compound 179],,> 50,,
COc1cc(-c2c(-c3cc(F)ccc3Cl)cc(Cl)c(=O)n2C)cc(F)c1F [compound 180],,> 50,,
COc1c(F)cc(-c2c(-c3cc(F)ccc3Cl)cc(Br)c(=O)n2C)cc1F [compound 181],,> 50,,
COc1cc(-c2c(-c3cc(F)ccc3Cl)cc(Br)c(=O)n2C)cc(F)c1F [compound 182],,> 50,,
CCCn1c(-c2cc(F)cc(F)c2)c(-c2ccccc2Cl)cc(Cl)c1=O [compound 207],> 50,,,
CCn1c(-c2ccc(OCc3ccccc3)cc2)c(-c2cc(F)cc(F)c2Cl)ccc1=O [compound 210],,,> 50,
Cn1c(-c2cc(Cl)cc(Cl)c2)c(-c2ccccc2Cl)ccc1=O [compound 214],,> 50,,
CCn1c(-c2cc(Cl)cc(Cl)c2)c(-c2ccccc2Cl)cc(Br)c1=O [compound 216],,> 50,,
Cn1c(-c2cc(Cl)cc(Cl)c2)c(-c2ccccc2Cl)cc(Br)c1=O [compound 218],,> 50,,
CCCOc1ccc(-c2c(-c3cc(F)cc(F)c3Cl)ccc(=O)n2CC)cc1 [compound 219],> 50,,,> 50
CCn1c(-c2ccc(OCC(F)(F)F)cc2)c(-c2cc(F)cc(F)c2Cl)ccc1=O [compound 224],> 50,,,> 50
CCn1c(-c2ccc(OCc3ccccc3)cc2)c(-c2cc(F)cc(F)c2Cl)cc(Cl)c1=O [compound 225],,,> 50,
CCn1c(-c2ccc(OCOC)cc2)c(-c2cc(F)cc(F)c2Cl)cc(Cl)c1=O [compound 226],,> 50,,
CCn1c(-c2cc(C)cc(C)c2)c(-c2ccccc2Cl)ccc1=O [compound 230],,> 50,> 50,> 50
CCn1c(-c2cc(C)cc(C)c2)c(-c2ccccc2Cl)cc(Cl)c1=O [compound 231],,> 50,,
CCn1c(-c2cc(C)cc(C)c2)c(-c2ccccc2Cl)cc(Br)c1=O [compound 232],,> 50,,
Cc1cc(C)cc(-c2c(-c3ccccc3Cl)ccc(=O)n2C)c1 [compound 236],,,,> 50
Cc1cc(C)cc(-c2c(-c3ccccc3Cl)cc(Cl)c(=O)n2C)c1 [compound 237],,,,> 50

Compound,control value [1] [%],control value (Botrytis cinerea) [%],control value (Puccinia recondita) [%],control value (Alternaia brassicicola) [%]
Cn1c(-c2ccc(F)cc2)c(-c2c(F)cccc2F)cc(Br)c1=O [compound 277],,,> 50,
Cn1c(-c2ccc(F)cc2)c(-c2c(F)cccc2F)cc(Cl)c1=O [compound 282],,> 50,> 50,> 50
Cn1c(-c2ccc(F)cc2)c(-c2cccnc2Cl)cc(Br)c1=O [compound 290],,,> 50,
CCn1c(-c2ccc(F)cc2)c(-c2cccc(OC(C)C)c2Cl)cc(Cl)c1=O [compound 296],,,,> 50
CCn1c(-c2ccc(C(F)(F)F)cc2)c(-c2cc(F)cc(F)c2Cl)ccc1=O [compound 301],,> 50,,
CCn1c(-c2ccc(C(F)(F)F)cc2)c(-c2cc(F)cc(F)c2Cl)cc(Cl)c1=O [compound 302],,> 50,,
CCn1c(-c2ccc(C(F)(F)F)cc2)c(-c2cc(F)cc(F)c2Cl)cc(Br)c1=O [compound 303],,> 50,,
Cn1c(-c2ccc(C(F)(F)F)cc2)c(-c2cc(F)cc(F)c2Cl)cc(Cl)c1=O [compound 304],,,,> 50
Cn1c(-c2ccc(C(F)(F)F)cc2)c(-c2cc(F)cc(F)c2Cl)cc(Br)c1=O [compound 305],,,,> 50
CCn1c(-c2ccc(F)cc2)c(-c2ccccc2OC)cc(Cl)c1=O [compound 307],,,> 50,> 50
Cn1c(-c2ccc(Br)cc2)c(-c2cc(F)cc(F)c2Cl)cc(Br)c1=O [compound 312],,,> 50,
Cn1c(-c2ccc(Br)cc2)c(-c2cc(F)cc(F)c2Cl)cc(Cl)c1=O [compound 313],,> 50,> 50,
Cn1c(-c2ccc(F)cc2)c(-c2ccccc2C#N)cc(Br)c1=O [compound 316],,> 50,> 50,
CCn1c(-c2ccc(C#N)cc2)c(-c2cc(F)cc(F)c2Cl)ccc1=O [compound 317],,> 50,> 50,> 50
Cn1c(-c2ccc(C#N)cc2)c(-c2ccccc2Cl)cc(I)c1=O [compound 336],,> 50,> 50,> 50
C#Cc1cc(-c2ccccc2Cl)c(-c2ccc(C#N)cc2)n(CC)c1=O [compound 343],,,,> 50
Cn1c(-c2ccc(F)cc2)c(-c2ccc(Cl)cc2Cl)cc(Cl)c1=O [compound 356],,,> 50,> 50
Cn1c(-c2ccc(F)cc2)c(-c2ccc(Cl)cc2Cl)cc(Br)c1=O [compound 357],,,> 50,
CCn1c(-c2ccc(F)cc2)c(-c2ccc(Cl)cc2Cl)cc(Br)c1=O [compound 361],,> 50,> 50,> 50
C#Cc1cc(-c2ccc(Cl)cc2Cl)c(-c2ccc(F)cc2)n(CC)c1=O [compound 365],,,> 50,> 50
N#Cc1ccc(-c2c(-c3ccccc3Cl)ccc(=O)n2CC(F)(F)F)cc1 [compound 370],,,> 50,> 50
N#Cc1ccc(-c2c(-c3ccccc3Cl)cc(Br)c(=O)n2CC(F)(F)F)cc1 [compound 372],> 50,,,
O=c1c(Br)cc(-c2ccc(F)cc2F)c(-c2ccc(F)cc2)n1CC(F)(F)F [compound 374],> 50,,,

Compound,control value [1] [%],control value (Botrytis cinerea) [%],control value (Puccinia recondita) [%],control value (Alternaia brassicicola) [%]
Cn1c(-c2ccc(F)cc2)c(-c2cc(C(F)(F)F)ccc2Cl)ccc1=O [compound 376],,> 50,> 50,
Cn1c(-c2ccc(F)cc2)c(-c2cc(C(F)(F)F)ccc2Cl)cc(Cl)c1=O [compound 377],,,,> 50
CCN1C(=O)CCC(c2cc(C(F)(F)F)ccc2Cl)=C1c1ccc(F)cc1 [compound 379],,> 50,> 50,
Cn1c(-c2ccc(F)cc2)c(-c2ccc(Br)cc2Cl)cc(Cl)c1=O [compound 383],,,> 50,
Cn1c(-c2ccc(F)cc2)c(-c2ccc(Br)cc2Cl)cc(Br)c1=O [compound 384],,,> 50,
CC(=O)c1ccc(-c2ccc(=O)n(C)c2-c2ccc(F)cc2)c(Cl)c1 [compound 392],,> 50,> 50,
CCn1c(-c2ccc(F)cc2)c(-c2cc(C(F)(F)F)ccc2Cl)cc(C(C)=O)c1=O [compound 394],> 50,,,
CCn1c(-c2ccc(F)cc2)c(-c2cc(Cl)ccc2Cl)cc(Br)c1=O [compound 418],> 50,> 50,> 50,
CCN1C(=O)CCC(c2cc(Cl)ccc2Cl)=C1c1ccc(C#N)cc1 [compound 421],> 50,,> 50,
CCn1c(-c2ccc(C#N)cc2)c(-c2cc(Cl)ccc2Cl)cc(Br)c1=O [compound 424],,,> 50,
CCn1c(-c2ccc(C#N)cc2)c(-c2cc(Cl)ccc2Cl)cc(Cl)c1=O [compound 425],,,> 50,> 50
N#Cc1ccc(-c2c(-c3cc(Cl)ccc3Cl)cc(Cl)c(=O)n2CC(F)F)cc1 [compound 437],,> 50,,
CCn1c(-c2ccc(C#N)cc2)c(-c2cc(OCCOC)ccc2Cl)cc(Cl)c1=O [compound 440],> 50,,,
CCn1c(-c2ccc(C#N)cc2)c(-c2cc(OCCOC)ccc2Cl)cc(Br)c1=O [compound 441],,> 50,,
CSCOc1ccc(Cl)c(-c2cc(Cl)c(=O)n(CC(F)F)c2-c2ccc(F)cc2)c1 [compound 442],> 50,,,> 50
COCCOc1ccc(Cl)c(-c2cc(Br)c(=O)n(CC(F)F)c2-c2ccc(C#N)cc2)c1 [compound 447],,> 50,> 50,> 50
CCn1c(-c2ccc(F)cc2)c(-c2cc(C(F)(F)F)ccc2Cl)cc(C(F)(F)F)c1=O [compound 452],,,,> 50
CCn1c(-c2ccc(F)cc2)c(-c2cc(F)ccc2C)ccc1=O [compound 472],> 50,,,> 50
CCn1c(-c2ccccc2)c(-c2cc(C)ccc2C)cc(Br)c1=O [compound 485],,> 50,,> 50
CCN1C(=O)CCC(c2cc(F)ccc2Br)=C1c1ccccc1 [compound 502],> 50,,,
O=c1c(I)cc(-c2ccc(F)cc2Cl)c(-c2ccc(F)cc2)n1CC(F)F [compound 507],,> 50,,
